From patent US4772616A, “Treatment of ocular hypertension and glaucoma with dopamine antagonists” (priority 1987, dated 1988)
At least one compound was matched to its structure with a doubt left.

Tests used:
[1] = test system: intraocular pressure (IOP); test: Intraocular pressure (IOP) recovery model in rabbits after hypertonic saline (20% NaCl) infusion; format: in vivo, Albino rabbits; conditions: rabbit, 0.25 wt % aqueous solution, Mackay-Marg tonometer
Protocol: Albino rabbits of either sex, weighing 2.25-2.5 kg were used for this intraocular pressure (IOP) recovery model experiment. Hypertonic saline (20% NaCl) was infused into the ear vein at a rate of 1 ml/min. for 10 minutes. The IOP was determined with Mackay-Marg electronic applanation tonometer (Berkeley Bio-Engineering, San Leandro, Calif.) at 0, 5, 10, 15, 20, 40, 60, 80, and every 30 minutes thereafter. The IOP decreased abruptly right after the infusion of hypertonic saline and recovered to normal in approximately 80-110 minutes. Identical experiments were repeated with the same group of animals one week later, wherein addition to the hypertonic saline infusion, haloperidol was instilled into the eyes in the form of 50 μl of an aqueous solution of 0.125 wt % haloperidol.
The procedure performed in Example 1 was carried out in the same manner, except that an aqueous solution of 0.25 wt % haloperidol was employed.
The procedure performed in Example 1 was carried out in the same manner, except that an aqueous solution of 0.25 wt % moperone was used.
The procedure performed in Example 1 was carried out in the same manner, except that an aqueous solution of 0.25 wt % trifluperidol was used.
The procedure performed in Example 1 was carried out in the same manner, except that an aqueous solution of 0.25 wt % L-timolol was used. […]

intraocular pressure = conditions: cited from earlier work

## CC(C)(C)NC[C@H](O)COc1nsnc1N1CCOCC1 [Timolol, 1-tert-butyl-amino-3-[(4-morpholino-1,2,5-thiadiazol-3-yl)oxy]-2-propanol]
[1]
  shift of the IOP recovery curve relative to the control curve: indicates the ocular hypotensive action
Intraocular pressure; background
  reducing intraocular pressure: effective in reducing intraocular pressure
Intraocular pressure; comparison with haloperidol
  mechanism: effect on aqueous humor outflow and formation: decreases aqueous humor formation without changing aqueous humor outflow
